According to PubChem BioAssay AID1961 (Sanford-Burnham Center for Chemical Genomics, 2009):
The list shows a part of the results.

experiment: selective activators of receptor GPR55 – imaging, U2OS cells, beta-arrestin-GFP redistribution, primary screen (AID 1961); conditions: measured here: cytotoxicity, cells analyzed, at 10 µM;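 note: U2OS osteosarcoma cells stably expressing GPR55 and beta-arrestin-GFP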

Row | Compound | cell count
1 | Cc1cc(C)cc(N(C(=O)c2ccccc2)C2CCN(C(=O)OC(C)(C)C)CC2)c1 | 393 cells
2 | O=C(NCC1(N2CCOCC2)CCCCC1)c1cc2ccccc2o1 | 298 cells
3 | O=C(OC1CN2CCC1CC2)C1c2ccccc2Oc2ccccc21 (centres undefined) | 318 cells
4 | N#CC1(Nc2ccccc2)CCN(Cc2ccccc2)CC1 | 318 cells
5 | CCOC(=O)N1CCC(Nc2ccc(OC)cc2)CC1 | 236 cells
6 | CC(C)(C)OC(=O)N1CCC(N(C(=O)c2ccccc2)c2ccc(F)cc2)CC1 | 318 cells
7 | COc1ccc(C(=O)NCC2(N3CCCCC3)CCCCC2)c(OC)c1OC | 315 cells
8 | COc1ccc(C(=O)NCC2(N3CCCCC3)CCCCC2)cc1 | 376 cells
9 | O=C(NCC1(N2CCCCC2)CCCCC1)c1ccc(=O)[nH]c1 | 340 cells
10 | CSc1ccccc1C(=O)NCC1(N2CCCCC2)CCCCC1 | 331 cells
11 | Cc1ccc(OCC(C)C)c(CN(CCCl)CCCl)c1 | 332 cells
12 | COc1cc(C(=O)NCC2(N(C)C)CCCCC2)ccc1OC(F)F | 364 cells
13 | CCOC(=O)N1CCC(Nc2cccc(C)c2)CC1 | 424 cells
14 | CCOc1ccc(C)cc1CN(CCCl)CCCl | 353 cells
15 | CCOC(=O)N1CCC(Nc2ccc(F)cc2)CC1 | 346 cells
16 | COc1ccc(NC2CCN(CCc3ccccc3)CC2)c(OC)c1 | 391 cells
17 | O=C(NCC1(N2CCCCC2)CCCCC1)c1ccc(F)cc1 | 324 cells
18 | O=C(NCC1(N2CCCCC2)CCCCC1)c1cccc(C(F)(F)F)c1 | 292 cells
19 | O=C(NCC1(N2CCOCC2)CCCCC1)c1cc(=O)[nH]c2ccccc12 | 375 cells
20 | COc1cc(C(=O)NCC2(N3CCCCC3)CCCCC2)ccc1OC(F)F | 320 cells
21 | COc1ccc(NC2CCN(C(=O)OC(C)(C)C)CC2)cc1 | 262 cells
22 | CN1CCN(CCOC(=O)C(O)(c2ccccc2)c2ccccc2)CC1 | 336 cells
23 | O=C(NCC1(N2CCCCC2)CCCCC1)c1ccc(OC(F)F)cc1 | 373 cells
24 | N#CC1(Nc2ccccc2)CCN(CCc2ccccc2)CC1 | 350 cells
25 | CCN1CCC(Nc2ccc(Cl)cc2)CC1 | 423 cells
26 | O=C(NCC1(N2CCCCC2)CCCCC1)c1cccc([N+](=O)[O-])c1 | 235 cells
27 | CCCOc1ccc(C(=O)NCC2(N(C)C)CCCCC2)cc1OC | 383 cells

Row | Compound | cell count
28 | CC(C)c1ccc(NC2CCN(C(=O)OC(C)(C)C)CC2)cc1 | 254 cells
29 | CN(C)c1cccc(C(=O)NCC2(N3CCCCC3)CCCCC2)c1 | 266 cells
30 | COc1ccc(CN(CCCl)CCCl)cc1Cl | 408 cells
31 | COc1cc(OC)c(C(=O)NCC2(N(C)C)CCCCC2)cc1OC | 335 cells
32 | CCOC(=O)N1CCC(Nc2ccc(C)cc2)CC1 | 431 cells
33 | N/C(=N\O)c1c(N)no[n+]1[O-] | 304 cells
34 | O=C(OC1CN2CCC1CC2)C1c2ccccc2C=Cc2ccccc21 (centres undefined) | 328 cells
35 | COc1ccc(C(=O)NCC2(N3CCOCC3)CCCCC2)cc1OC | 268 cells
36 | CN(C)C1(CNC(=O)c2cccc(C#N)c2)CCCCC1 | 353 cells
37 | CCCN1CCC(Nc2cc(OC)cc(OC)c2)CC1 | 405 cells
38 | c1ccc(CN2CCC(Nc3ccccc3)CC2)cc1 | 357 cells
39 | N#Cc1ccc(C(=O)NCC2(N3CCCCC3)CCCCC2)cc1 | 259 cells
40 | CC(C)(C)OC(=O)N1CCC(N(C(=O)c2ccccc2)c2ccc(Cl)cc2)CC1 | 352 cells
41 | CCN1CCC(Nc2cccc(F)c2)CC1 | 357 cells
42 | CN(C)c1ccc(C(=O)NCC2(N3CCCCC3)CCCCC2)cc1 | 268 cells
43 | COc1cc(OC)cc(C(=O)NCC2(N3CCCCC3)CCCCC2)c1 | 375 cells
44 | Fc1ccccc1NC1CCN(Cc2ccccc2)CC1 | 348 cells
45 | COc1cccc(C(=O)N(c2cc(C)cc(C)c2)C2CCN(C(=O)OC(C)(C)C)CC2)c1 | 361 cells
46 | COc1cc(OC)cc(C(=O)NCC2(N3CCOCC3)CCCCC2)c1 | 253 cells
47 | CCC(CO)(C(=O)OC1CN2CCC1CC2)c1ccccc1 (centres undefined) | 328 cells
48 | CN1CCC(Nc2ccc(Cl)cc2)CC1 | 381 cells
49 | CCCOc1ccc(C)cc1CN(CCCl)CCCl | 316 cells
50 | CN1CCC(Nc2ccc(F)c(Cl)c2)CC1 | 400 cells
51 | CCOc1ncccc1C(=O)NCC1(N2CCOCC2)CCCCC1 | 336 cells
52 | O=C(O)C1(Nc2ccccc2)CCN(Cc2ccccc2)CC1 | 333 cells
53 | CC(C)(C)OC(=O)N1CCC(Nc2ccccc2)CC1 | 224 cells
54 | CCCOc1ccc(C(=O)NCC2(N(C)C)CCCCC2)cc1 | 385 cells
